# PubChem BioAssay AID652272 – Drosophila RNAi Screening Center | 2013
# Assay: 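Finding fly genes that regulate Hedgehog signal transduction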 (primary screen)
# Cell system: Drosophila clone 8 (Cl8) cells
# Reagents: long dsRNA against Drosophila genes
# Detection: 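Plate reader light from a firefly reporter under a ptc promoter fragment that responds to Hedgehog, with Renilla light as transfection reference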
# Scale: firefly Hh reporter signal: higher = more ptc reporter light; Renilla reference signal: higher = more Renilla control light
# Call rule: 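Called a hit if the two-replicate mean z-score lies below -2 or above +3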
# Meaning of the calls: active = hit: reporter lowered or raised; inactive = not a hit
# In all, the deposit lists about 21,000 reagents; this is a random part of those that have a named target and a result. Of all reagents, 503 (2.4%) are marked active. 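Raw plate light values, not normalised; calls rest on replicate z-scores that were not deposited; hits include reporter decreases as well as increases.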 A plus sign joins genes that one reagent is predicted to hit. Not given: the amount of reagent, the time to read-out.
gene,dsRNA,"firefly Hh reporter signal, replicate 1","firefly Hh reporter signal, replicate 2","firefly Hh reporter signal, replicate 3","Renilla reference signal, replicate 1","Renilla reference signal, replicate 2",Outcome
CG2875 (GeneID 31326),DRSC18231,1.51e5,1.05e5,,3680,3937,inactive
Teh1 (GeneID 41215),DRSC14544,1.33e5,1.81e5,,3654,4871,inactive
Ts (GeneID 33499),DRSC00795,1.51e5,86488,,1992,7945,inactive
CG32147 (GeneID 251690),DRSC09346,2.47e5,,,5492,,inactive
CG13594 (GeneID 37940),DRSC04229,73380,44810,,1547,5568,inactive
CG12680 (GeneID 31427),DRSC17871,70576,1.46e5,,2395,5281,inactive
Oseg1 (GeneID 38957),DRSC10776,78339,49979,,3750,1996,inactive
Crag (GeneID 31800),DRSC18454,1.03e5,90090,,2215,2231,inactive
CG32631 (GeneID 32311),DRSC19768,1.44e5,1.22e5,,2560,2356,inactive
PIG-C (GeneID 38410),DRSC08241,54729,45462,,1084,3297,inactive
CG15317 (GeneID 31898),DRSC18005,98608,2.48e5,,3344,9075,inactive
slbo (GeneID 37889),DRSC04716,1.32e5,80381,,3981,7340,inactive
Smyd4-3 (GeneID 36234),DRSC07041,86194,38992,,3495,1730,inactive
mor (GeneID 41942),DRSC15378,74692,68704,,1664,5552,inactive
msd1 (GeneID 38155),DRSC08383,60752,40620,,2333,3330,inactive
CG31122 (GeneID 42221),DRSC14787,1.07e5,4.56e5,74856,4450,28890,inactive
CG31122 (GeneID 42221),DRSC16286,6.71e5,1.36e5,,33216,3627,inactive
CG10286 (GeneID 40786),DRSC12520,75417,51245,,2826,1693,inactive
CG5050 (GeneID 35048),DRSC02807,94746,76978,,2519,6312,inactive
alpha-Est4 (GeneID 40906),DRSC12616,59392,79832,,1585,2433,inactive
Edem1 (GeneID 31154),DRSC18573,69931,61405,,1906,2053,inactive
CG6443 (GeneID 34477),DRSC02958,49169,32809,,2061,1456,inactive
Vajk1 (GeneID 34809),DRSC01882,1.64e5,84802,,4530,7808,inactive
Ir7b (GeneID 31690),DRSC18009,40156,1.22e5,,2236,6874,inactive
Dref (GeneID 34328),DRSC03319,70016,39536,,1346,944,active
CG13930 (GeneID 38210),DRSC08399,76956,49728,,2741,3126,inactive
Ype (GeneID 32295),DRSC20301,1.08e5,98128,,2988,2121,inactive
SLIRP1 + anox,DRSC20542,1.30e5,1.21e5,,3115,3090,inactive
Sbds (GeneID 38749),DRSC10992,65881,68085,,3280,2778,inactive
Acp53C14c (GeneID 3346203),DRSC05626,76562,1.83e5,,2387,7077,inactive
CG7202 (GeneID 40376),DRSC11818,1.31e5,1.48e5,,4531,4684,inactive
Uba2 (GeneID 44496),DRSC11311,64428,88979,,1609,6640,inactive
EAChm (GeneID 39637),DRSC10010,89317,,,3035,2679,inactive
bnl (GeneID 42356),DRSC13377,53221,3.08e5,,10700,6493,inactive
bnl (GeneID 42356),DRSC16913,31232,1.10e5,,1938,4469,inactive
spag (GeneID 43958),DRSC04717,69770,51956,,1773,4660,inactive
eIF4E7 (GeneID 31059),DRSC17782,97517,2.53e5,,3126,10913,inactive
eIF4E7 (GeneID 31059),DRSC18623,84405,2.15e5,,1831,6160,inactive

Entries listed so far whose target name begins with M or m (2):
gene,dsRNA,"firefly Hh reporter signal, replicate 1","firefly Hh reporter signal, replicate 2","firefly Hh reporter signal, replicate 3","Renilla reference signal, replicate 1","Renilla reference signal, replicate 2",Outcome
mor (GeneID 41942),DRSC15378,74692,68704,,1664,5552,inactive
msd1 (GeneID 38155),DRSC08383,60752,40620,,2333,3330,inactive

Next results follow.
gene,dsRNA,"firefly Hh reporter signal, replicate 1","firefly Hh reporter signal, replicate 2","firefly Hh reporter signal, replicate 3","Renilla reference signal, replicate 1","Renilla reference signal, replicate 2",Outcome
twe (GeneID 34954),DRSC03628,70594,70696,,3427,3485,inactive
Gr5a (GeneID 44873),DRSC18085,71843,1.60e5,,2322,6829,inactive
Scm (GeneID 41168),DRSC16853,67728,1.04e5,,1959,2674,inactive
CG13114 (GeneID 34272),DRSC02212,1.33e5,97195,,3557,7393,inactive
Ccdc114 (GeneID 42024),DRSC15025,65981,83403,,1604,2444,inactive
cag (GeneID 36157),DRSC07587,95459,54761,,1821,1509,inactive
CG8065 (GeneID 39186),DRSC10959,49381,59184,56877,5954,3184,inactive
Nup358 (GeneID 43041),DRSC14410,1.00e5,65157,,4324,1413,inactive
CG9717 (GeneID 43636),DRSC16543,1.03e5,99302,,2834,2587,inactive
Mal-A8 (GeneID 35830),DRSC07234,90651,46019,,1715,3644,inactive
CG5111 (GeneID 43085),DRSC15717,4.92e5,89876,,25410,2585,inactive
CG6497 (GeneID 39924),DRSC10654,1.62e5,,,4547,3504,inactive
Jon99Ciii (GeneID 43543),DRSC16859,74924,60897,,2860,3140,inactive
CG32445 (GeneID 261603),DRSC11678,86208,96053,,3133,2773,inactive
Osi14 (GeneID 40770),DRSC12368,68491,78197,,2700,2610,inactive
Rh2 (GeneID 42261),DRSC16821,5.82e5,1.19e5,,26262,3367,inactive
MED7 (GeneID 41288),DRSC16059,73430,1.46e5,,2461,3213,inactive
CG13671 (GeneID 38932),DRSC10030,1.26e5,1.30e5,,5670,5568,inactive
Klp64D (GeneID 38611),DRSC11204,82906,1.35e5,,9078,7993,inactive
CG10973 (GeneID 39447),DRSC09813,93901,79340,,3965,3148,inactive
CG14454 (GeneID 40482),DRSC11711,90665,72192,,2917,2150,inactive
CG1275 (GeneID 38286),DRSC08294,1.00e5,82340,,4816,3866,inactive
CG9686 (GeneID 31921),DRSC18439,99746,2.91e5,,2410,7804,inactive
gw (GeneID 43808),DRSC17135,1.62e5,85928,,3184,2900,inactive
gw (GeneID 43808),DRSC17160,42124,76444,,1159,3340,inactive
CG34007 (GeneID 3885610),DRSC01790,1.35e5,2.71e5,,4048,12570,inactive
Sfp26Ad (GeneID 8673981),DRSC00904,3.83e5,2.34e5,,18903,9864,inactive
Pfdn5 (GeneID 42647),DRSC16183,1.68e5,1.18e5,,6212,5363,inactive
cbt (GeneID 33224),DRSC00655,81586,48434,,3385,2416,inactive
CG42586 + CG31775,DRSC01413,95852,1.50e5,,2848,7032,inactive
dsx-c73A (GeneID 39831),DRSC09435,2.08e5,,,4944,,inactive
dsx-c73A (GeneID 39831),DRSC09914,88057,,,5723,2644,inactive
dsx-c73A (GeneID 39831),DRSC10429,1.60e5,,,5826,4733,inactive
CG34301 (GeneID 5740866),DRSC12704,1.95e5,,,4002,,inactive
CG17186 (GeneID 42363),DRSC15180,5.94e5,1.17e5,,31145,3395,inactive
